Assay results taken from PubChem BioAssay AID504444 (National Center for Advancing Translational Sciences (NCATS), 2011).
Screen size: about 360,000 compounds; about 7,500 (2.1%) were called active. Only results without a clear call are listed here; the source files them as inconclusive. Calls come from the whole dose curve; as a rule, active = well fitted inhibition curve with a large enough effect; inconclusive = small, poorly fitted or top-dose-only effect, or effect the other way; inactive = flat fitted curve, though single readings scatter. Some tests of the compounds listed are not included; inactive here does not mean inactive elsewhere.

Test: Nrf2 qHTS screen for inhibitors; note: nearly all actives have a fitted effect of over 60% in size
Details: A549 ARE-Fluc reporter, luciferase luminescence, 18-24 h
Potency is the fitted concentration of half-maximal effect.

Compound	Potency
CN(C)C1(CNC(=O)c2ccc(Br)cc2)CCCCC1	inconclusive: 18.4 µM
